Measurements from PubChem BioAssay AID540256 (National Center for Advancing Translational Sciences (NCATS), 2011).
Out of some 300,000 compounds screened, about 3,700 (1.2%) were called active. This list was built around the results that the source calls inconclusive (neither active nor inactive); the mix of calls is not that of the screen. Calls follow the shape of the full dose curve; tested in HEK293 cells. A potency beside an inconclusive call is a rough fit, not a confirmed value.

Test: qHTS for Inhibitors of binding or entry into cells for Lassa Virus; also: nearly all actives have a fitted effect of over 50% in size
Details: Lassa virus pseudotype entry inhibition, cell reporter; activity change, negative = inhibition: at 37.9 µM (top of the series) unless noted
% is scaled to controls: 0 for no effect and ±100 for the full control effect; potency is read from the fitted curve at half-maximal effect.

SMILES	Potency	activity change, negative = inhibition
COC(=O)COC(=O)c1ccc(-n2nnnc2SC)cc1	inconclusive: 6.51 µM [inhibitor, single point]	–
CCC(C)[C@H](NC(=O)N1CCCC1)C(=O)OC (stereo partly drawn)	–	inactive: 14.3%
Cc1ccc(-c2nc3cc(NC(=O)C(C)C)ccc3o2)cc1C	inconclusive: 7.3 µM [inhibitor, partial curve, poor fit]	–
O=C(Nc1nccs1)c1cc(-c2ccncc2)nc2ccccc12	–	inactive: -1.56%
COc1cc2nc(N(C)CCCNC(=O)C3CCCO3)nc(N)c2cc1OC (stereo not drawn)	–	inactive: 2.53%
COc1cc(C(=O)N/N=C/c2cn(Cc3cccc(F)c3)c3ccccc23)ccc1O	inconclusive: 5.62 µM [activator, single point]	–
Cc1ccc(C)c(-n2nnnc2SCC(=O)NCCC2=CCCCC2)c1	inconclusive: 18.3 µM [inhibitor, partial curve, poor fit]	–
COc1ccc2c(c1)Cc1sc(NC(=O)c3ccccc3C)nc1-2	–	inactive: 2.72% [at 46.1 µM]
Cc1cc(C(=O)CSc2n[nH]c(N)n2)c(C)n1C1CC1	–	inactive: -1.05%
CCOc1ccc(-c2nnc(SCC(=O)NC3CCCCC3)nc2-c2ccc(OCC)cc2)cc1	inconclusive: 15.8 µM [activator, single point]	–
O=C(CN(C(=O)CCC(=O)Nc1nccs1)c1ccc2c(c1)OCO2)NCC1CCCO1 (stereo not drawn)	–	inactive: 2.27%
COc1cccc(C(=O)Nc2ccc(Oc3cccc(C(F)(F)F)c3)nc2)c1	inconclusive: 2 µM [inhibitor, full curve]	–
COc1ccc(SCc2cc(=O)c3ccc(C)c(C)c3[nH]2)cc1	inconclusive: 35.5 µM [activator, single point]	–
COC(=O)c1c(O)cc(C(C)(C)C)n(-c2ccccc2)c1=O	inconclusive: 29.1 µM [inhibitor, partial curve, poor fit]	–
Cc1ncc(CN2CCCC(C(=O)Nc3ccc(-c4cscn4)cc3)C2)cn1 (stereo not drawn)	inconclusive: 1.26 µM [inhibitor, single point]	–
Cc1cc(C(=O)N2CCN(c3ccccc3)CC2)c(C)o1	–	inactive: 43.3%
CC(C(=O)NC(C)(C)C)N(Cc1cccs1)C(=O)CCN1CCc2ccccc21 (stereo not drawn)	inconclusive: 15.8 µM [inhibitor, partial curve, poor fit]	–
Cn1cnnc1SCC(=O)NCc1ccccc1	inconclusive: 1.26 µM [inhibitor, single point]	–
CSc1cccc(NC(=S)N(CCCN2CCCC2)Cc2cccn2Cc2ccc(Cl)cc2)c1	active: 2.82 µM	–
CCN(CC)S(=O)(=O)c1ccc(/C=C/C(=O)Nc2ccc(Br)cc2F)cc1	active: 1.58 µM	–
Cc1ccc(Sc2ccc(N3CCCC(C(=O)Nc4ccc(Br)cc4)C3)nn2)cc1 (stereo not drawn)	active: 1.12 µM	–
CCOC(=O)c1cccnc1NC(=O)c1ccccc1	inconclusive: 0.517 µM [inhibitor, partial curve, poor fit]	–

SMILES	Potency	activity change, negative = inhibition
COc1ccc(C2CC(C(F)(F)F)n3nc(C(=O)NCc4c(C)nn(C)c4C)c(Cl)c3N2)cc1 (stereo not drawn)	–	inactive: -38.1%
CCCCOc1ccc(C(=O)NCC(c2ccc(Cl)cc2)N2CCOCC2)cc1 (stereo not drawn)	inconclusive: 5.62 µM [inhibitor, full curve, poor fit]	–
O=C(N/N=C/c1ccco1)c1cccc([N+](=O)[O-])c1	inconclusive: 7.08 µM [activator, full curve, poor fit]	–
Cc1ccc(N2CC(C(=O)Nc3ccncc3)CC2=O)cc1 (stereo not drawn)	inconclusive: 32.6 µM [activator, single point]	–
CCN(CC)CCCN(C(=O)c1ccc(Br)cc1)c1nc(-c2ccc(OC)cc2)cs1	inconclusive: 11.2 µM [inhibitor, partial curve, poor fit]	–
Cc1nc(C(=O)N2CCc3c([nH]c4ccccc34)C2c2cc(F)ccc2F)cs1 (stereo not drawn)	inconclusive: 10 µM [inhibitor, partial curve, poor fit]	–
COc1ccc(C(=O)Nc2c(N)nc(SCC(=O)c3ccccc3)[nH]c2=O)cc1	–	inactive: -0.067%
CC(=O)c1ccc(NC(=O)Nc2ccc3snnc3c2)cc1	inconclusive: 8.91 µM [activator, partial curve, poor fit]	–
CCCn1c(SCc2nc(N)nc(N3CCCCC3)n2)nc2c1c(=O)n(C)c(=O)n2C	–	inactive: -6.27% [at 46.1 µM]
Cc1cc(C)c(NC(=O)/C(=C/c2ccccc2)c2ccccc2)c(C)c1	inconclusive: 25.9 µM [inhibitor, single point]	–
Cc1ccc(NC(=O)/C(=C\c2cccc([N+](=O)[O-])c2)NC(=O)c2cccs2)cc1	inconclusive: 6.31 µM [activator, single point]	–
CCOC(=O)c1ccc(N2C(=O)c3n[nH]c(-c4ccco4)c3C2c2ccc(OC)cc2OC)cc1 (stereo not drawn)	inconclusive: 20 µM [inhibitor, partial curve, poor fit]	–
COc1ccc2c(CC(=O)Nc3ccc(OC)c(S(=O)(=O)N4CCOCC4)c3)coc2c1	–	inactive: -1.41%
CC1CCC/C(=N\Nc2ccc(Cl)c(C(=O)O)c2)C1 (stereo not drawn)	inconclusive: 7.31 µM [activator, partial curve, poor fit]	–
COc1cccc(-c2nc(S(=O)(=O)c3ccc(C)cc3)c(N3CCCCCC3)o2)c1	inconclusive: 10 µM [inhibitor, partial curve, poor fit]	–
COc1ccc(CCNC(=O)c2cc(S(=O)(=O)N3CCC4(CC3)OCCO4)ccc2F)cc1OC	inconclusive: 35.5 µM [inhibitor, single point]	–
Cc1ccc(NC(=O)Cc2ccc(NC(=O)N3CCCCc4ccccc43)cc2)cc1Cl	inconclusive: 3.16 µM [inhibitor, single point]	–
O=c1[nH]c2c(=O)[nH]cnc2nc1-c1ccccc1	inconclusive: 35.5 µM [activator, single point]	–
COc1ccc(/C=C/C(=O)Nc2ccc(C)cc2)cc1	inconclusive: 35.5 µM [inhibitor, single point]	–
Cc1noc(C)c1COc1ccccc1C(=O)NNC(=O)C(C)Oc1ccccc1F (stereo not drawn)	–	inactive: -12.3% [at 46.1 µM]
CC(=O)N(C(C)=O)c1cccc(N(Cc2ccccc2)Cc2ccccc2)c1	inconclusive: 35.5 µM [inhibitor, single point]	–

Two of these compounds in a different format.
SMILES,Potency,"activity change, negative = inhibition"
COc1ccc(CCNC(=O)c2cc(S(=O)(=O)N3CCC4(CC3)OCCO4)ccc2F)cc1OC,"inconclusive: 35.5 µM [inhibitor, single point]",–
Cc1ccc(NC(=O)Cc2ccc(NC(=O)N3CCCCc4ccccc43)cc2)cc1Cl,"inconclusive: 3.16 µM [inhibitor, single point]",–
